In US20180282279A1, “Pantothenamide Analogues” (Radboud Universitair Medisch Centrum, priority 2014, published 2018):
Some of these results come from one statement about several compounds together. At least one structure is not confirmed: it was looked up by name or label, or the drawing left a doubt.

Tested on: Staphylococcus aureus
Test: Bacterial growth assay and MIC determination, S. aureus
Assay type: cell-based
Details: serum + (10% serum)
Description: Strains of Escherichia coli, Staphylococcus aureus and Staphylococcus epidermidis, were grown overnight in 1% Bacto tryptone medium (BD, Sparks, Md.). Streptococcus pyogenes was grown overnight in Bacto Todd Hewitt Broth medium (BD, Sparks, Md.). Cultures were then diluted 1:1,000 in fresh assay medium supplemented with or without 20% fetal bovine serum (FBS; HyClone, Celbio, Logan, Utah) and added to 96-well sterile enzyme-linked immunosorbent assay (ELISA) plates (100 μl per well). The compounds to be tested were diluted in the medium without serum and added to the bacteria (100 μl per well). Plates were incubated at 37° C., and bacterial growth was monitored over time by reading the optical density at 490 nm using a microplate reader (model 450; Bio-Rad Laboratories Inc., Hercules, Calif.). Streptococcus pneumoniae strains were grown to mid-log phase (OD620 of 0.3) and stored in 15% glycerol at […] till further use. Minimal inhibitory concentration (MIC) of antibiotics was determined according to standard procedures. Bacteria were diluted 10-fold in Mueller-Hinton medium (BD, Sparks, Md.) and added to 96-well sterile ELISA plates (150 μl per well). The compounds to be tested were diluted in the medium without serum and added to the bacteria (150 μl per well). Plates were incubated overnight at 37° C. in 5% CO2. […]

`CCCCCCCCCNC(=O)CCNC(=O)[C@H](O)C(C)(C)CO` [Compound N9-Pan, reference compound] was tested, and the MIC was > 256 µg/mL.
